Measured values from article PMC7049810.
No constants are given. Whether binding was seen depends on the method and setting. Some results given as binding are weak or reduced against the parent protein; the word gives no strength.

Sequences of proteins named here, by UniProt entry; tags and fusion partners are left off. Residues count along the entry.
UniProt P0AFB1, residues 20-294: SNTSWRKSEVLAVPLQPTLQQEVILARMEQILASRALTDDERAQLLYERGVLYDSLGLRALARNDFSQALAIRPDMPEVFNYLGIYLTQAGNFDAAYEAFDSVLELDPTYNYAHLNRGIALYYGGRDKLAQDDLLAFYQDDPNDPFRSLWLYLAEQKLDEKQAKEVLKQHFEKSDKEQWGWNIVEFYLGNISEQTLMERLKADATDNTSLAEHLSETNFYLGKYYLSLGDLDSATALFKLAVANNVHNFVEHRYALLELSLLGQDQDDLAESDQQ
UniProt P24228, residues 21-477: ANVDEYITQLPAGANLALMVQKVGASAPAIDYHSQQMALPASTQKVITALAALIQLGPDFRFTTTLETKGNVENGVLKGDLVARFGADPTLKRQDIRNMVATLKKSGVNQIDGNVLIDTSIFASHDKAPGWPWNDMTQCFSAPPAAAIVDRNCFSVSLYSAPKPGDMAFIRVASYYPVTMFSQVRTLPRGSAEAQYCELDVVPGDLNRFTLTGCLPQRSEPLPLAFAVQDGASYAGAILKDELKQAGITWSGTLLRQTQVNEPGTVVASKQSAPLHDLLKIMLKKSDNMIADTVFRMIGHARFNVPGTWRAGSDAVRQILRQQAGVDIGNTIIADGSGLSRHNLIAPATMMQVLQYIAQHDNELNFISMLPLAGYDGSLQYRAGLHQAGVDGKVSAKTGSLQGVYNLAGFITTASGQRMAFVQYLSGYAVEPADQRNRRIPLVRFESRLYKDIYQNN

Experiments:
[1] = molecular target: T1, PBP1A, purified (Escherichia coli) (UniProt P02918); assay: MST; titration: NT647-labelled protein against a two-fold serial dilution (16 steps) of unlabelled ligand; 25 mM HEPES/NaOH, 150 mM NaCl, 0.05% Triton X-100, pH 7.5; Monolith NT.115; apparent constants; for NlpI with itself: dimer to monomers; both purified
T1 sequence (chain, NT647 RED-NHS dye on amines (PBP1A was the labelled protein in all MST assays)): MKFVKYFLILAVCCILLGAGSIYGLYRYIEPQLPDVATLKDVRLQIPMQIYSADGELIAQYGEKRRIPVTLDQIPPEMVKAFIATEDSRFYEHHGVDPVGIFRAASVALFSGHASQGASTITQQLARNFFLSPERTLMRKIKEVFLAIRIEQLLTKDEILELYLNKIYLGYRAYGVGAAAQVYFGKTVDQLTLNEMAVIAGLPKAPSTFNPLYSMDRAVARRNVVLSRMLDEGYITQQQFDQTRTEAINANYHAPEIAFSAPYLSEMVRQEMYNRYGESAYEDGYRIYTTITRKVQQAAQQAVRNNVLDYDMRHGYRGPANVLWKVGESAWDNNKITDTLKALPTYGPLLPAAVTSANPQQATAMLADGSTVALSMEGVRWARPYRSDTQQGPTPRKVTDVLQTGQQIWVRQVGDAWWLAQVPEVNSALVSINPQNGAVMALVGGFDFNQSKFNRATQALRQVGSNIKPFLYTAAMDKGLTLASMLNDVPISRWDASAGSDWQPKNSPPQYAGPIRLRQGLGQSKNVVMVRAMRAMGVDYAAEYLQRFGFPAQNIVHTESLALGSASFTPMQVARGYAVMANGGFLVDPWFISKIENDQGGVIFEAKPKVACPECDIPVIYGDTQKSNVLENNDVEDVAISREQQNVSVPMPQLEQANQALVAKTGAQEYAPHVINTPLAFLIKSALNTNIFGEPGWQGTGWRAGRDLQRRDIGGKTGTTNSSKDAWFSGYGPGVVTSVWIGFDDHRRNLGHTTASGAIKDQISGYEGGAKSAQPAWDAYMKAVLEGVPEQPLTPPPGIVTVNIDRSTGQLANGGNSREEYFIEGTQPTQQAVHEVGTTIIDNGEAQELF

MepS (Escherichia coli) [2] = molecular target: T2, MepS (Escherichia coli) (UniProt P0AFV4); assay: MST; fixed ligand concentration assay: labelled MepS, LpoA or PBP1A with fixed unlabelled NlpI, PBP4, PBP7 or pre-formed complexes (NlpI 3 μM with 30 μM PBP4 or PBP7 for fl-MepS and fl-LpoA; PBP4 0.5 μM with NlpI 1 μM for fl-PBP1A); FNorm, or raw fluorescence for LpoA; both purified
T2 sequence (chain, where used as fl-MepS in MST, NT647 RED-NHS dye on amines): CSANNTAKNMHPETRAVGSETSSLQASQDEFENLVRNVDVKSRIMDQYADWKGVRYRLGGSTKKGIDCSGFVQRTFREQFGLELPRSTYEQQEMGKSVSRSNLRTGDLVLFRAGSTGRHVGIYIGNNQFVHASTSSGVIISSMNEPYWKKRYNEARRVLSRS

[3] = molecular target: T1, PBP1A, purified (Escherichia coli); assay: as above
MepS (Escherichia coli) [4] = molecular target: T2, MepS (Escherichia coli); assay: MST + pull-down; endopeptidases tested against each other, 'a combination of MST and Ni2+-NTA pull-down assays'; all combinations of MepM, MepS, PBP4, PBP7; both purified

| Substance | binding [1] | binding (MepS (Escherichia coli) [2]) | binding [3] | binding (MepS (Escherichia coli) [4]) |
| --- | --- | --- | --- | --- |
| NlpI, soluble version lacking its membrane anchor (from UniProt P0AFB1 20-294) | no binding (tested: 50 μM) | – | – | – |
| PBP4, native, purified (from UniProt P24228 21-477) (enzyme) | – | no binding (tested: 30 μM) | binds | no binding |
| pre-formed NlpI-PBP4 complex (from UniProt P0AFB1 20-294; P24228 21-477) | – | – | binds | – |
